In article PMC6599804, “N^ɛ-acetyl lysine derivatives with zinc binding groups as novel HDAC inhibitors” (Royal Society Open Science, 2019):
“Also recorded” adds a separate entry of the source.

Tested on: HDACⅠ
Assay: HDAC subtype selectivity assay with subtype substrate, HDACⅠ
Format: biochemical, human
Details: 1μM; from table S1
Excerpt: against both tumor cells and normal cells, then calculate and compare their selective index.” […]
of Supporting Information.
Reponses to Reviewer 2’s comments
Reviewer 2 is also very positive about the manuscript. We thank the reviewer for the helpful comments and careful reading of the manuscript. Our changes and/or responses are detailed below.
Comment 1: “Should add some discussion about whether the synthesized compounds intend to be pan- or specific- HDAC inhibitors.”
S1 of Supporting Information.
Comment 2: “ The cellular data is just described for the acetylation level of tubulin which is only relevant […]
And then incubation at 37℃ for 1h, the mixture was stopped by the addition of 50 μL of Buffer B (200mM HCl/300 mM Acetic acid), fluorescence intensity was measured using a microplate reader at excitation and emission wavelengths of 360 nm and 460 nm. The inhibition ratios were calculated from the fluorescence intensity readings of tested wells relative to those of control wells, […]
The rate of cell survival under the action of test substances was evaluated by an improved MTS assay as previously described. […]
48 hours 5ul of MTS reagent solution was added into each well and the cells were incubated for another 4 hours at 37℃ under 5% CO2 environment. The absorbance was measured at 490 nm in […]

Q: With O=C(CCCCCCC(=O)NCCCC[C@H](NC(=O)OCc1ccccc1)C(=O)Nc1ccccc1)NO [Compound 18c] as the compound, how does the “inhibitory selectivity between HDAC I and HDAC II (pan- or specific HDAC inhibitor)” value read?
A: no obviously inhibitory selectivity; also recorded: pan-HDAC inhibitors
